PubChem BioAssay AID662 (National Center for Advancing Translational Sciences (NCATS), 2007)
This is one part of the list. Further columns of the screen follow, without active or inactive calls. Compounds called inactive in the main read-out are mostly missing here. Words in brackets tell the shape of the fitted curve; partial curves, single points and poor fits give uncertain potencies.

Assay: Cell signaling CRE-BLA (Fsk stim)
Settings: CHO CRE-bla reporter (cAMP response element driving beta-lactamase), forskolin EC10, beta-lactamase ratio; measured here: 460 nm blue channel
Procedure, shortened: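 Beta-lactamase reporter under a cAMP responsive element in CHO cells; compounds tested in titration series against EC10 NKH 477, 3 h at 37 °C. Read-out: CCF4 FRET ratio 460nm/530nm (excitation 405nm) giving %Activity, fitted to AC50.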

| Structure (SMILES) | AC50 |
| --- | --- |
| CCCCSc1nnc([C@H](CC(C)C)NC(=O)OC(C)(C)C)o1 | 25.1 µM [rising, single point] |
| CSc1nnc2n(-c3ccccc3)c(=O)c3c4c(sc3n12)CCC4 | 2.51 µM [rising, full curve] |
| Cc1cc(C)c(C#N)c(N2CCN(Cc3ccc4c(c3)OCO4)CC2)n1 | 10 µM [rising, partial curve] |
| Cc1cccc(N2CCN(C(=O)C3CCCN(S(=O)(=O)c4cccc5cccnc45)C3)CC2)c1C (stereo not drawn) | 5.01 µM [falling, single point] |
| Fc1ccccc1CSc1nnc(-c2cnccn2)n1Cc1ccco1 | 3.16 µM [rising, partial curve] |
| CCNc1nc(NC(C)C)nc(Oc2ccc(OCCOc3ccc(C)cc3)nn2)n1 | 0.316 µM [rising, partial curve] |
| CN(Cc1ccco1)c1ncnc2ccc(-c3ccc4c(c3)OCO4)cc12 | 3.16 µM [rising, partial curve] |
| CCCCNC(=O)c1c[nH]c2ccc(S(=O)(=O)Nc3ccc(OCC)cc3)cc2c1=O | 25.1 µM [falling, single point] |
| CCCc1cc(Nc2cccc(OCC)c2)n2ncnc2n1 | 10 µM [rising, partial curve] |
| Cc1cc(N2CCN(C(c3ccccc3)c3ccc(Cl)cc3)CC2)n2ncnc2n1 (stereo not drawn) | 25.1 µM [falling, single point] |
| COc1cccc(-c2nc(CS(=O)CC(=O)NCCCOC(C)C)c(C)o2)c1 (stereo not drawn) | 0.00794 µM [falling, full curve, poor fit] |
| Cc1cccc2cc(CN(CCCO)C(=O)Nc3ccc(Cl)cc3)c(=O)[nH]c12 | 0.501 µM [falling, full curve, poor fit] |
| COc1ccc(-c2nc(CSCC(=O)N3CCC(C(N)=O)CC3)c(C)o2)cc1OC | 15.8 µM [rising, single point] |
| CCCNC(=O)c1cc(-c2ccc(OC)cc2)on1 | 0.0398 µM [falling, full curve, poor fit] |
| N#Cc1c(N)oc(-c2ccc3c(c2)OCO3)c1-c1ccc2c(c1)OCO2 | 5.01 µM [rising, partial curve] |
| CCN(CC)CCCN(Cc1cc2cc3c(cc2[nH]c1=O)OCCO3)C(=O)Nc1ccccc1 | 20 µM [rising, single point] |
| O=C(NCCc1ccccc1)C1CCCN(S(=O)(=O)c2cccc3nsnc23)C1 (stereo not drawn) | 15.8 µM [rising, single point] |
| FC(F)Oc1ccc(-c2csc(Cc3nnc4n3CCCCC4)n2)cc1 | 25.1 µM [rising, single point] |
| C=CCn1c(=O)c2c(nc3n2CCS3)n(C)c1=O | 10 µM [rising, partial curve] |
| CN1CCN(c2ncc3ncc(=O)n(CCc4ccccc4)c3n2)CC1 | 12.6 µM [rising, partial curve] |
| COc1cc(NC(=O)c2cc(-n3cnnc3)ccc2Cl)cc(OC)c1 | 12.6 µM [rising, single point] |
| CCc1nc(SCC(=O)NCc2ccco2)c2c3c(sc2n1)CCCC3 | 3.16 µM [rising, single point] |

| Structure (SMILES) | AC50 |
| --- | --- |
| O=C(CSc1nc2c(cnn2-c2ccccc2)c(=O)[nH]1)c1ccc(Cl)cc1 | 0.126 µM [rising, full curve, poor fit] |
| CCc1ccc(NC(=O)c2ccc3c(c2)C(=O)N(Cc2ccco2)C3=O)cc1 | 10 µM [falling, single point] |
| COc1ccccc1NC(=O)CSc1nnc(-c2ccccn2)n1Cc1ccco1 | 10 µM [rising, partial curve] |
| CCC/C=C(\CCC)C(NS(=O)(=O)c1ccccc1)c1ccc(C(F)(F)F)cc1 (stereo not drawn) | 2.51 µM [rising, full curve] |
| COc1ccc(-c2nc3cnc(N4CCOCC4)nc3n(Cc3cccc(OC)c3)c2=O)cc1 | 5.01 µM [rising, partial curve] |
| O=C(CCn1c(=O)c2sccc2n(Cc2cc(=O)n3ccccc3n2)c1=O)NCc1ccco1 | 0.0251 µM [falling, partial curve] |
| O=C(NCCOc1ccc(Cl)cc1)C1CC(=O)N(c2ccc(F)cc2)C1 (stereo not drawn) | 0.316 µM [falling, full curve] |
| Cc1cccc(N2CCN(C(=O)C3CCN(c4nnc(-n5cccc5)s4)CC3)CC2C)c1 (stereo not drawn) | 6.31 µM [falling, partial curve] |
| COc1ccccc1NC(=O)CC1Nc2ccccc2NC1=O (stereo not drawn) | 10 µM [rising, partial curve] |
| CCOC(=O)NC(CC(=O)O)c1ccc(OCC)cc1 (stereo not drawn) | 1.58 µM [rising, partial curve] |
| CCOCCCNS(=O)(=O)c1ccc2c(c1)CCN2C(=O)CC | 7.94 µM [rising, single point] |
| O=C(CN1CCOCC1)Nc1cccc(Br)c1 | 15.8 µM [falling, partial curve] |
| Clc1ccccc1-c1ccc2ncnc(N3CCNCC3)c2c1 | 10 µM [rising, partial curve] |
| CC1(C(=O)Nc2nccs2)Cc2ccccc2C(=O)O1 (stereo not drawn) | 12.6 µM [falling, partial curve] |
| Cc1nn(CC(=O)Nc2ccc(C(=O)N3CCCCC3)cc2)c(=O)c2ccccc12 | 5.01 µM [rising, single point] |
| Cc1nc2ccc(NC(=O)C3CCN(S(=O)(=O)c4cccs4)CC3)cc2s1 | 3.16 µM [falling, full curve] |
| c1csc(Cc2nc3ccccc3[nH]2)c1 | 0.0501 µM [falling, full curve] |
| COc1ccc(O)c(-c2[nH]ncc2C(=O)c2ccccc2C)c1 | 5.01 µM [falling, partial curve] |
| O=Nc1ccc(NO)cc1 | 25.1 µM [falling, partial curve, poor fit] |
| Cc1cc2ncn(C3CC(=O)N(Cc4ccccc4)C3=O)c2cc1C (stereo not drawn) | 15.8 µM [rising, partial curve, poor fit] |
| Cc1cc(C(=O)CSc2nnc(Cc3ccccc3)o2)c(C)n1Cc1ccc2c(c1)OCO2 | 31.6 µM [falling, single point] |

An excerpt of these results, with tabs.
Structure (SMILES)	AC50
CCOC(=O)NC(CC(=O)O)c1ccc(OCC)cc1 (stereo not drawn)	1.58 µM [rising, partial curve]
CC1(C(=O)Nc2nccs2)Cc2ccccc2C(=O)O1 (stereo not drawn)	12.6 µM [falling, partial curve]
Cc1nc2ccc(NC(=O)C3CCN(S(=O)(=O)c4cccs4)CC3)cc2s1	3.16 µM [falling, full curve]
